From paper PMC6890249

Molecular target: T1, FLAG-tagged CLASP1 (H. sapiens CLASP1 isoform 2) (human) (UniProt Q7Z460)
T1 sequence: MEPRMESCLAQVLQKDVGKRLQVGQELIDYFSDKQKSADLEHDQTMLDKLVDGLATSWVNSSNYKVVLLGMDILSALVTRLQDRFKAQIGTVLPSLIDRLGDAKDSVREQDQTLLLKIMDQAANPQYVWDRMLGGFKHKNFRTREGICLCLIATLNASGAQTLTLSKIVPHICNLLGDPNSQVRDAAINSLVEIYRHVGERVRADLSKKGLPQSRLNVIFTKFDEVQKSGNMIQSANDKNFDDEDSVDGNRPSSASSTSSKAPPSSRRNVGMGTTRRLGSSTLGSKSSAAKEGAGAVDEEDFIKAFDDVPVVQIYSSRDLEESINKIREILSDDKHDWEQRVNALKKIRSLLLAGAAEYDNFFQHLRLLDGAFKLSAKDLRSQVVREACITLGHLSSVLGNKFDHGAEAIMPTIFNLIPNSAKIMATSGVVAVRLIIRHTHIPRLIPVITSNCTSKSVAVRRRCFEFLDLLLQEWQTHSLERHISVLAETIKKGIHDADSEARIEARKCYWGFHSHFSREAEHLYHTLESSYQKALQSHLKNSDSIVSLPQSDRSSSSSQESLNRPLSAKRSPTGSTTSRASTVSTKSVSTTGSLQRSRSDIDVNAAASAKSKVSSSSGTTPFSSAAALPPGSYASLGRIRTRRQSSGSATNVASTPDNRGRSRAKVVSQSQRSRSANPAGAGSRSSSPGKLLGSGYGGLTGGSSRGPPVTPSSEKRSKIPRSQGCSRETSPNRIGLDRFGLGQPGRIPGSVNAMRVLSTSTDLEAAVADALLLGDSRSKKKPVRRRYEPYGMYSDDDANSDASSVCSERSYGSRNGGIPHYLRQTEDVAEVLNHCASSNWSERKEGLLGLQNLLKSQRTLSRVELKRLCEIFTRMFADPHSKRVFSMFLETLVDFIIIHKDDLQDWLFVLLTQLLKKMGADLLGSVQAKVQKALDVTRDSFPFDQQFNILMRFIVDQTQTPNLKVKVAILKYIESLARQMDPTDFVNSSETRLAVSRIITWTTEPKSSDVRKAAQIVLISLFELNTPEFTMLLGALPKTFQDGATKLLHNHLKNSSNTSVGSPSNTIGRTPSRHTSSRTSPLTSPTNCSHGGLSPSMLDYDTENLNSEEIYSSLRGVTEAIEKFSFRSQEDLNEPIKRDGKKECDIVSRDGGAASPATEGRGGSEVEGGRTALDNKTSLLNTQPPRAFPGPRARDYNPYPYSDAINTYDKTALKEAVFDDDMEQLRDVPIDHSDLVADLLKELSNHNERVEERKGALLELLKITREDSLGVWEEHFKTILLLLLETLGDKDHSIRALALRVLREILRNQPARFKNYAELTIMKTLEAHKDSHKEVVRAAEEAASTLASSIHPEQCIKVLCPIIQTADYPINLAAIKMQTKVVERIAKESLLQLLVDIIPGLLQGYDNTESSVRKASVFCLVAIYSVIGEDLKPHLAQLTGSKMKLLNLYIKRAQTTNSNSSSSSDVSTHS
Experiment: co-IP; FLAG-tagged CLASP1 coexpressed with HA-tagged kinases in HEK293T; anti-FLAG M2 magnetic beads, 3xFLAG peptide elution; Western blot

With “HA-tagged MARK2 (transcript variant 3, MARK2 1–724) (from UniProt Q7KZI7-16) (enzyme)” the binding was “binds”.

Results are given in words; binding and its absence hold for the method and conditions named. Binding seen in cells or lysates may run through a third protein. A result given as binding can be weak or reduced; the word gives no strength. Tags and fused reporters may be left off the sequences shown.
